# Reference: the supplement of paper PMC10338343
# ± gives the standard deviation. This is a selection; strong and weak results do not stand in their true shares. The uncertainty is large for many entries.
# Tested on: MILI (PIWIL2) piRISC loaded with piRNA #1 (26 nt)
# Assay: pre-steady-state target cleavage rate (min^-1); MIWI and MILI are mouse PIWI proteins and EfPiwi is from a freshwater sponge; tags in brackets are library labels; higher = faster piRNA-guided slicing of the target
# Settings: guide: piRNA #1 5'p-UGAGGUAGUAGGUUGUAUAGUAUCCA; auxiliary factor: 500 nM mouse GTSF1
# Procedure, shortened: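 The pre-steady-state cleavage rate was derived from a burst-and-steady-state fit of Cleave-'n-Seq data. For these assays, 1 nM active affinity-purified piRISC loaded with a single synthetic guide was mixed with […] a transcribed, DNA-blocked target RNA library in HEPES–potassium acetate buffer at 33 °C, with or without 500 nM GTSF1 partner protein, for 0–8 or 0–960 min. Sequencing counts of uncleaved targets were normalised to depth and to weakly complementary targets, and k3 was capped at 0.0001 min^-1 after three trials were pooled.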
# 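Note: 1 nM active piRISC with 0.1 nM target library at 33 °C single turnover.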
row,Sequence,pre-steady-state target cleavage rate
1,GGAGACCUAUGAUAUGUUGCAACUUCCUCA,0.000105 ± 0.021
2,GGAGACCUAUGAUAUCUACCUACUACCUCA,0.000308 ± 0.0076
3,GGAGACCUAUGAAUACAACUCUACUACCUCA,0.000973 ± 0.0073
4,GGAGACGAAACUAUACAACCAACUACCUCA,0.00424 ± 0.0046
5,GGAGACCUAUGAUAACAACCUUCUAGCUCA,0.0011 ± 0.0064
6,GGAGACCUUACUAAACAACCUACUACCUCA,0.112 ± 0.012
7,GGAGACGAUACUAUAGUACCUACUACCUCA,0.193 ± 0.013
8,GGAGAGGAUACUAGUACAACCUACUACCUCA,0.079 ± 0.011
9,GGAGACCUAUGAUAUGUUGGUAGUUCCUCA,0.000107 ± 0.02
10,GGAGACCUAUCUAUACAACUCUACUACCUCA,0.000605 ± 0.0054
11,GGAGAGGAUACUAUACAACCAACUAGCUCA,0.00206 ± 0.0031
12,GGAGACCUAUGAUAUCAACCUACAACCACA,0.000694 ± 0.0086
13,GGAGACGAUUCUAUACAACCUACUACCACA,0.219 ± 0.015
14,GGAGACCUAUGAUAUGAACCUACUAACCUCA,0.000101 ± 0.021
15,GGAGACCUAUGAUAACAACCUAUACCUCA,0.00058 ± 0.01
16,GGAGACCUAUCUAUUCAACCUACUACCUGA,0.0654 ± 0.014
17,GGAGACCUAUGAUAUGAUCCAACUACCUCA,0.000235 ± 0.012
18,GGAGACGAUACUAUAGAACCUACUUCCUCA,0.0055 ± 0.0044
19,GGAGACCUAUGAAUAGAACCUACUACCUGA,0.00023 ± 0.014
20,GGAGACCUAACUAUACAACCUAGAUCCUCA,0.00302 ± 0.0057

row,Sequence,pre-steady-state target cleavage rate
1,GGAGACCUAUGAAUUGAACCUACUACCUCA,0.000225 ± 0.019
2,GGAGACCUAUGAAUAAACCUACUACCUCA,0.000469 ± 0.011
3,GGAGACCUAUGAUUACUACCAACUACCUCA,0.00118 ± 0.0054
4,GGAGACCUUACUAUACAACCAUGAUGGAGA [g11:g22:cont:t1A],0.000658 ± 0.01
5,GGAGACCUAACUAUACAAACCUACUACCUCA,0.000763 ± 0.015
6,GGAGUGGUUACUAUACAACCUACUACCUCA,0.186 ± 0.0089
7,GGAGACCUAUGAUAUGUACCUUCAACCUCA,< 0.0001
8,GGAGACCUAUGAUAUCAACCUAUACCUCA,0.000107 ± 0.025
9,GGAGUCGAUACUAUACAUCCUACUACCUCA,0.313 ± 0.017
10,GGAGAGGAUACAAUACAUCCUACUACCUCA,0.239 ± 0.021
11,GGAGAGGAUACUAUACAACCAACAACCUCA,0.00205 ± 0.0022
12,GGAGACCAUACUAUACAACGUUCUACCUCA,0.00208 ± 0.0043
13,GGAGACGAUGACUAUACAACCUACUACCUCA,0.151 ± 0.02
14,GGAGACCUAUCUAUACAAGCUACUACCUGA,0.125 ± 0.019
15,GGAGUGGAUACUAUACAACCUACAAGCUCA,0.00149 ± 0.0027
16,GGAGACCUAUGAUAACAACCUACUACCAGA,0.00109 ± 0.005
17,GGAGACCUAAGCUAUACAACCUACUACCUCA,0.141 ± 0.028
18,GGAGACCUAUGAUAUGUUCCUAGAACCUCA,0.00014 ± 0.016
19,GGAGACCUAUGAAUACAACCUCACUACCUCA,0.00378 ± 0.0031
20,GGAGUGGUUACUAUACAUCCUACUACCUCA,0.295 ± 0.014

# Some of the entries so far, with bars between the fields:
row | Sequence | pre-steady-state target cleavage rate
5 | GGAGACCUAACUAUACAAACCUACUACCUCA | 0.000763 ± 0.015
11 | GGAGAGGAUACUAUACAACCAACAACCUCA | 0.00205 ± 0.0022
12 | GGAGACCAUACUAUACAACGUUCUACCUCA | 0.00208 ± 0.0043
14 | GGAGACCUAUCUAUACAAGCUACUACCUGA | 0.125 ± 0.019
15 | GGAGUGGAUACUAUACAACCUACAAGCUCA | 0.00149 ± 0.0027
17 | GGAGACCUAAGCUAUACAACCUACUACCUCA | 0.141 ± 0.028
19 | GGAGACCUAUGAAUACAACCUCACUACCUCA | 0.00378 ± 0.0031
